## Library screening results

By UniProt entry, the sequences of proteins in these tests, tags left out.
UniProt E9BF75, entry or part of it: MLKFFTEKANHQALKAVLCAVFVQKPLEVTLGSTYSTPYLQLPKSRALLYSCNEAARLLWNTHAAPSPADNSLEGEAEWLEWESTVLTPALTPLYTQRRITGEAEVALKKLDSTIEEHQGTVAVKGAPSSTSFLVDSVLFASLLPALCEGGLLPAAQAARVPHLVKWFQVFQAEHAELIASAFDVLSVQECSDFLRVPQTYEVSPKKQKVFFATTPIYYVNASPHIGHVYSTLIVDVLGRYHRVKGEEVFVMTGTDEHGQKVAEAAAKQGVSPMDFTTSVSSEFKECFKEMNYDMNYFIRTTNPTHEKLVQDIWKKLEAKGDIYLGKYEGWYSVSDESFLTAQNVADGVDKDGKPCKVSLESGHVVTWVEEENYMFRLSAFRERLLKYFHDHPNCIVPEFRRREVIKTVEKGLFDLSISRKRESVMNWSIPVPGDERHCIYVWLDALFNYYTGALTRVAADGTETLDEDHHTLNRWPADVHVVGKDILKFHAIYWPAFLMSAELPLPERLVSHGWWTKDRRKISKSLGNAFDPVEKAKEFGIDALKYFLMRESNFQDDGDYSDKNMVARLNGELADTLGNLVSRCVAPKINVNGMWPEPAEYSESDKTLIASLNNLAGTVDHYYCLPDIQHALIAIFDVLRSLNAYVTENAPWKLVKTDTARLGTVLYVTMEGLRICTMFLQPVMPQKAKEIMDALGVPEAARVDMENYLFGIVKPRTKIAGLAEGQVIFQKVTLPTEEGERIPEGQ

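Methionyl-tRNA synthetase (putative), Leishmania donovani (UniProt E9BF75). Primary screen of methionyl-tRNA synthetase; the read-out is not stated. The test concentration is not given. Values are per cent inhibition. Size under these conditions: about 68,000 compounds, about 24 of them at 50% or above in at least one test.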

All values are in %. The record does not define 0% and 100%; most values in the screen are far below 50% and negative numbers occur (in some assays of this library far below -100). Compounds were drawn at random from those tested, without regard to their results.

compound,Inhibition
COc1ccccc1CN1C(=O)O[C@@H]2CN(c3ccccn3)C[C@@H]21,2.857%
CC(C)CN1C(=O)C2(CCN(Cc3ccsc3)C2)c2ccccc21 (configuration not stated),7.726%
O=C(NCCO)Nc1cnc2cc(Cl)ccc2c1O,20.83%
COc1ncccc1CNC(=O)c1cnc(C)cn1,12.72%
CCOc1ccc(C(=O)N2CCCC(n3nc(C)nc3C)C2)cc1 (configuration not stated),5.397%
Cc1cc(C(=O)NC2(C#N)CCSCC2)n(C)n1,17.38%
COc1cccc2cc(CNC(=O)N3CCC(N4CCCC4)C3)oc12 (configuration not stated),11.55%
Cc1ccc(CN2CCCC3(CCN(S(C)(=O)=O)C3)C2)o1 (configuration not stated),13.59%
CN(CCOCC1CC1)C(=O)Nc1ccc(C#N)c(Cl)c1,14.04%
COc1cccc(Cl)c1C(C(=O)O)N(C)Cc1nnc(C)o1 (configuration not stated),6.452%
O=C(Nc1ccccc1F)N(CCO)CCOCC(F)(F)F,8.659%
CCC1CN(c2cnn(-c3ccccc3)c(=O)c2Cl)CCO1 (configuration not stated),5.319%
O=C(O)c1cc(S(=O)(=O)Nc2cnn(C3CCOCC3)c2)ccc1F,9.014%
CNS(=O)(=O)c1ccc(F)c(C(=O)NCc2ccnc(OC)c2)c1,5.222%
COCC(=O)N1CCOC(c2ccc(N(C)C)cn2)C1 (configuration not stated),7.91%
CCc1nc(CN(C(C)=O)C2CCN(CCc3cnn(C)c3)C2)no1 (configuration not stated),6.103%
Cc1nc(CN2CCC23CCN(Cc2ccoc2)CC3)cs1,21.3%
Cc1ccc(CC(=O)NC(C)C(=O)N2CCS(=O)(=O)CC2)cc1 (configuration not stated),9.058%
CC(C)CC(NC(=O)c1cccs1)c1nc2cccnc2n1C (configuration not stated),11.17%
COCCC1COC2(CCN(C(=O)C3CCCCC3)CC2)C1 (configuration not stated),22.63%
COc1cccc2c1OCC(C(=O)N1CCC(N3CCOC3=O)CC1)C2 (configuration not stated),15.56%
Cc1ccccc1C(=O)NC[C@@H]1CCN(C(=O)CN2CCCC2)C[C@H]1O,6.272%
Cc1cc(CNC2CCCN(Cc3noc(C4CC4)n3)C2)on1 (configuration not stated),10.61%
Cc1ncoc1C(=O)N1C[C@H]2CCC[C@@]2(COCC2CCOCC2)C1,9.764%
COCCN1CCC2(CC1)C(=O)Nc1ccc(C(=O)NC(C)C)cc12,15.74%
Cc1nccn1CC1CCN(C(=O)Cc2ccccc2)CC1,9.483%
COCCN1CCC2(CCN(CC3CC3)CC2)C1=O,14.19%
COc1ccc(CN2CCCn3nnc(COCC4CC4)c3C2)cc1,10.99%
CN1C[C@H](c2ccccc2)[C@H]2CN(C(=O)Cc3ccc(O)cc3)CC[C@H]21,4.651%
Cc1ccc(CNC(=O)N2CCc3ccccc3C2CO)s1 (configuration not stated),18.01%
O[C@@H]1C[C@H]2CN(Cc3ccsc3)[C@@H](Cc3ccccc3)CN2C1,17.92%
CCN(CC)[C@@H]1CN(S(=O)(=O)c2cn(C)cn2)[C@@H]2CCCO[C@H]12,12.24%
CCC(CC)C(=O)N1CCC2(CC1)c1ccccc1[C@@H](OC)[C@@H]2O,10.3%
CO[C@@]1(C)C[C@@H](O)C12CCN(C(=O)CCn1c(C)cccc1=O)CC2,10.47%
Cc1noc(C)c1-c1nc(C2CCCNC2)ccc1CO (configuration not stated),17.42%
CC(=O)N1CCC(N2CCN3C(=O)N(c4ccccc4)C[C@H]3C2)CC1,12.09%
CCC(OC)C(=O)NCC1CCN(c2cnn(C)c(=O)c2)CC1 (configuration not stated),10.64%
Cc1nn(C)c(C)c1C1COCCN1C(=O)c1ccccc1 (configuration not stated),1.215%
O=S(=O)(N1CCOCC1)N1CCCCC1CCc1ccc(O)cc1 (configuration not stated),8.065%
Cc1ccc(-c2noc([C@@H]3C[C@H](NC(=O)NC(C)C)CN3C)n2)cc1,9.831%
Cc1cccc(N2CCN(C(=O)Cc3ccccc3O)C(C)C2)n1 (configuration not stated),20.41%
O=C(CCn1c(=O)oc2ccccc21)NCC(O)c1ccccc1 (configuration not stated),18.28%
Cn1c(CN2CCCCC2)nnc1C1CCN(c2nccc(N)n2)CC1,10.8%
CC(C)NC(=O)C1CN(C(=O)c2ccccc2)CC12CCOCC2 (configuration not stated),8%
CC(C)COC(=O)N1CCN(C(=O)c2ccc3nccn3c2)CC1,6.803%
COc1ccc(C)cc1CC(=O)NC(CC(=O)O)c1ccc(F)cc1 (configuration not stated),5.615%
N#Cc1ccc(CSCCN2CCOCC2)cc1,6.593%
Cc1cc(CN(C)C(=O)NC2CCN(Cc3ccccc3)C2)no1 (configuration not stated),11.22%
Cc1nnc(CN(Cc2ccc3c(c2)OCO3)C2CCCCC2)o1,19.44%
COCCNC(=O)Cn1cc(OCc2ccccc2)c(=O)cc1CO,17.2%
O=C(NCC1CC1)[C@H]1C[C@@H]2CCN(Cc3ccc4c(c3)OCO4)C[C@@H]2O1,2.614%
O=C(c1ccc[nH]1)N1CCc2c(COCC3CC3)cncc2C1,14.48%
CN(Cc1ccc(Cl)s1)C(=O)CN(C)C1CCc2ccccc21 (configuration not stated),6.906%
Cc1csc(C2CCCN(C(=O)c3c(C)nn4cccnc34)C2)n1 (configuration not stated),16.27%
NC(=O)C1CCN(C(=O)CCSCc2ccccc2)CC1,14.53%
Cc1ccc(NC2CCN(C(=O)COCC3CC3)CC2)nn1,10.26%
Cc1cnn(CC2CCCN2Cc2ncc(-c3ccccc3)o2)c1 (configuration not stated),10.46%
NC(=O)COc1ccc(CNCc2cc(F)ccc2F)cc1,5.382%
CCc1nc(CN2CCCN(C(=O)Cc3cccs3)CC2)cs1,9.966%
CCOC(=O)c1nc(CN2CCC(NC(=O)C(C)C)CC2)cs1,11.56%
COCCCNC(=O)CN(C)C(=O)c1cc2cc(C)ccc2nc1C,14.92%
Cc1cnn(CCCNC(=O)NC2CCN(CC(F)(F)F)C2=O)c1 (configuration not stated),1.37%
Cc1cccc(CN2C[C@@H](F)[C@@H](OCc3nc4ccccc4[nH]3)C2)n1,15.04%
OC1(CNc2ccc(F)cc2)CCNCC1,18.33%
COc1cccc2c1OCC(CNC(=O)CN(C)C1CCCC1)C2 (configuration not stated),14.78%
CCN1Cc2c(C(=O)NC)ncn2-c2ccccc2S1(=O)=O,5.397%
Cc1cc(NCCO)nc(-c2ccccc2O)n1,2.517%
CCOCCN1CCCC1CS(N)(=O)=O (configuration not stated),19.26%
CN(CC1CCCO1)C1CCN(CCc2ccccn2)CC1 (configuration not stated),9.841%
CCn1nc(C)c(CNC(=O)NCC(C)(O)c2ccccc2)c1C (configuration not stated),6.25%
CCN(Cc1ccc2c(c1)OCCO2)C(=O)NCc1nncn1CC,18.8%
Cc1ccc(N2CCCC(c3[nH]ncc3Cc3ccccc3)C2)nn1 (configuration not stated),14.29%
O=C(Nc1ccc(-c2ccccc2)cn1)C1CCN(C(=O)C2CC2)CC1,11.08%
Cc1ccc(N2CCC3(CCN(Cc4nccs4)CC3)CC2)nn1,17.52%
Cc1ccc(Oc2ccc(NC(=O)NCC3CCOC3)cn2)cc1C (configuration not stated),15.95%
CCN1CCN(C(=O)NCc2cccc(-c3cnn(C)c3)c2)CC1,9.971%
NS(=O)(=O)c1cc(C(=O)N2CCCCC2)cs1,7.379%
COc1ccc(NCC2(O)CCNCC2)cc1OC,24.8%
Cc1cc(NCc2ccc(N3CCNC(=O)C3)cc2)nc(C)n1,4.668%
COc1cccc(CN2CCCC2c2cccc(F)c2)c1OC (configuration not stated),14.21%
CCc1cc(=O)n(CC(=O)N2CCCC2)c(-c2ccccc2)n1,17.85%
Cc1ccc(C(=O)N2CCN(C)C3(CCC(=O)N(C)CC3)C2)c(F)c1 (configuration not stated),11.23%
Cc1nnc(CCNC(=O)[C@H]2CNC[C@@H](C(=O)N3CCCC3)C2)s1,11.04%

9 of the entries, repeated:

| compound | Inhibition |
|---|---|
| `Cc1cc(CN(C)C(=O)NC2CCN(Cc3ccccc3)C2)no1` (configuration not stated) | 11.22% |
| `CCOC(=O)c1nc(CN2CCC(NC(=O)C(C)C)CC2)cs1` | 11.56% |
| `CCN1CCN(C(=O)NCc2cccc(-c3cnn(C)c3)c2)CC1` | 9.971% |
| `Cc1nc(CN2CCC23CCN(Cc2ccoc2)CC3)cs1` | 21.3% |
| `CCN(CC)[C@@H]1CN(S(=O)(=O)c2cn(C)cn2)[C@@H]2CCCO[C@H]12` | 12.24% |
| `COc1ccc(C)cc1CC(=O)NC(CC(=O)O)c1ccc(F)cc1` (configuration not stated) | 5.615% |
| `CCC(CC)C(=O)N1CCC2(CC1)c1ccccc1[C@@H](OC)[C@@H]2O` | 10.3% |
| `Cc1csc(C2CCCN(C(=O)c3c(C)nn4cccnc34)C2)n1` (configuration not stated) | 16.27% |
| `COc1cccc2cc(CNC(=O)N3CCC(N4CCCC4)C3)oc12` (configuration not stated) | 11.55% |

Data taken from ChEMBL document CHEMBL3988442, “University of Dundee, Small-Polar-MMV Screening Library” (2021).